Assay results taken from the supplement of paper PMC10849652.
The list shows a part of the results.

Chains of the proteins cited; added tags and fusions are not shown. Lines headed by an entry give the natural chain unless they say otherwise; changes in a name come on top.
UniProt P51970, whole entry, looked up: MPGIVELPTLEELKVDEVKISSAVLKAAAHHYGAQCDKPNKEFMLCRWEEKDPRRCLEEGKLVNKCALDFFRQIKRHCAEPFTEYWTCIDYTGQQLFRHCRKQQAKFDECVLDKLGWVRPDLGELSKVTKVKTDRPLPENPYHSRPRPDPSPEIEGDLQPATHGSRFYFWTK
UniProt O75251, whole entry, looked up: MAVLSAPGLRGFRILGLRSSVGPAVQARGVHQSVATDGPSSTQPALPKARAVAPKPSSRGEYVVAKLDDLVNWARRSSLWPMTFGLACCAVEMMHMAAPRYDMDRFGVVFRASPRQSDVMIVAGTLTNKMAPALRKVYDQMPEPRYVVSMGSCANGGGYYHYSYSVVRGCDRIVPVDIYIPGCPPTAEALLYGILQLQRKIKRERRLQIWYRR
UniProt O43678, whole entry, looked up: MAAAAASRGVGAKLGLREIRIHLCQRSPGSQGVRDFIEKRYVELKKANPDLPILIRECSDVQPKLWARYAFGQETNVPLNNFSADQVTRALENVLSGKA
UniProt Q9NVX2: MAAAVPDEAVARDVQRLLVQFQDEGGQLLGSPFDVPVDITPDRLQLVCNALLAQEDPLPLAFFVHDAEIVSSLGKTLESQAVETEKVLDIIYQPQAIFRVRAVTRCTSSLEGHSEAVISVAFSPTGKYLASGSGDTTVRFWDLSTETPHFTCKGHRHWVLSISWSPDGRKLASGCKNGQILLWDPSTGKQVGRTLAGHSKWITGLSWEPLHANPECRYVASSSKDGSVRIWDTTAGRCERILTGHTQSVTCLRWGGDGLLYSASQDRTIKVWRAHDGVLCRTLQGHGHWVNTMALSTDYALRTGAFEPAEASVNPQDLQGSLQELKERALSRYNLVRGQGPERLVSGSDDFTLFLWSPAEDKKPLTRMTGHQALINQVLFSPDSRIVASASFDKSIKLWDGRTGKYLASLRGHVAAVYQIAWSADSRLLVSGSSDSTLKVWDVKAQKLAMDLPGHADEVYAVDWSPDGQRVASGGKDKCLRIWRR
UniProt Q13952: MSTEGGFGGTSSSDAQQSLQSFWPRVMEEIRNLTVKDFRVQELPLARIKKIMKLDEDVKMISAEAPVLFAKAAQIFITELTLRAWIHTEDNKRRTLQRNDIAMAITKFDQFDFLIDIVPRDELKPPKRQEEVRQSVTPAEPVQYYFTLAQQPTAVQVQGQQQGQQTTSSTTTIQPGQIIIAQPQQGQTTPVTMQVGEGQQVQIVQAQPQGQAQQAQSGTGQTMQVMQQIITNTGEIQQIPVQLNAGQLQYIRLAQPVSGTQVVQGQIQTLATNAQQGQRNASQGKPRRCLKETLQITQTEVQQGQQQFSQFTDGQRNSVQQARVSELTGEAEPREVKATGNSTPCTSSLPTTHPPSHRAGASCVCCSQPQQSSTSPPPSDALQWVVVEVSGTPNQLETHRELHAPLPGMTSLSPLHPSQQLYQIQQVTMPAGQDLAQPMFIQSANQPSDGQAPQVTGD
UniProt Q6ZNB6: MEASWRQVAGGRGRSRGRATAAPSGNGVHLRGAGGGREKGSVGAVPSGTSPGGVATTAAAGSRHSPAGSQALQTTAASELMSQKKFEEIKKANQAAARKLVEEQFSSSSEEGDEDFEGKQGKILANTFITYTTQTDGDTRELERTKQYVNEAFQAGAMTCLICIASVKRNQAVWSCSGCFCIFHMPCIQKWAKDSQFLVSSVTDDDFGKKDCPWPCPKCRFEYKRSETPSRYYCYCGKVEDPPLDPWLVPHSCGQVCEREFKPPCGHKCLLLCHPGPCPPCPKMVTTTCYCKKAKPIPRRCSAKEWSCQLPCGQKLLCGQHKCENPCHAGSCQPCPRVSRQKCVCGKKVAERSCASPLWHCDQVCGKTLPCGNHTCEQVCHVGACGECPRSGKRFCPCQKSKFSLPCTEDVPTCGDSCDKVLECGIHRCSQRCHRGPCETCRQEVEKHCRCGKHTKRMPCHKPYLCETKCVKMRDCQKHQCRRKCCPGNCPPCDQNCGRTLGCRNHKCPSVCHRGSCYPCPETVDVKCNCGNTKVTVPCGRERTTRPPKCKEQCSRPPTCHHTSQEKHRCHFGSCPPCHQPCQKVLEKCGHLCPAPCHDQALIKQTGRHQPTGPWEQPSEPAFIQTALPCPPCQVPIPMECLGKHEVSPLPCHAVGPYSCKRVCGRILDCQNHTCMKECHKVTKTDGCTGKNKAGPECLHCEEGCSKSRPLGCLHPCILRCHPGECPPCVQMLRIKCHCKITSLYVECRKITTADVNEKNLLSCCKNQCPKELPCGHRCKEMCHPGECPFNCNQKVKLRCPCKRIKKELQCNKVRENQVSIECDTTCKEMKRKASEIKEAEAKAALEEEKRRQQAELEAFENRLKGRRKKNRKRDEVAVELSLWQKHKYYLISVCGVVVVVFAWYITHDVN
UniProt O95168, whole entry, looked up: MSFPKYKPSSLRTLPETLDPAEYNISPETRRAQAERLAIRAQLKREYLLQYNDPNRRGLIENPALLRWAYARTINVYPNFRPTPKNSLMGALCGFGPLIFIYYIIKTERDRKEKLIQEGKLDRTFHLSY
UniProt Q15843, whole entry, looked up: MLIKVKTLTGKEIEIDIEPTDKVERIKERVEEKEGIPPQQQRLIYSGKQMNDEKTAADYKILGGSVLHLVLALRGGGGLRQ
UniProt Q8N183: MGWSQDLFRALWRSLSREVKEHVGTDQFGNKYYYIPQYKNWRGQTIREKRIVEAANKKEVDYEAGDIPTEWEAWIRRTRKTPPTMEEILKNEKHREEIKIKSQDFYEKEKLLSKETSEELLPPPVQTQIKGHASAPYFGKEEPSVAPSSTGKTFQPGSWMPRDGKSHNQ
UniProt Q9UMS0: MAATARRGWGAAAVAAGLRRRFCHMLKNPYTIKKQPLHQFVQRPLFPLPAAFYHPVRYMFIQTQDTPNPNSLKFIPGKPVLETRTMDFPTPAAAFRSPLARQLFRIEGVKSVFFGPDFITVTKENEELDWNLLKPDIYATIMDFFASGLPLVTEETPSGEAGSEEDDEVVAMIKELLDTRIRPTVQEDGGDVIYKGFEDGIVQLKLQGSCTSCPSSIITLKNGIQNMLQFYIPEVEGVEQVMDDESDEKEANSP
UniProt Q9UI09, whole entry, looked up: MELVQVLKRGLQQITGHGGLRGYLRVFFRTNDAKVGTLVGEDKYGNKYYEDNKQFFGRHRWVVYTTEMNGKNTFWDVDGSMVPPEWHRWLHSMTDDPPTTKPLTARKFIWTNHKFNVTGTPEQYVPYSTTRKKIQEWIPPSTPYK
UniProt Q8WX92, whole entry, looked up: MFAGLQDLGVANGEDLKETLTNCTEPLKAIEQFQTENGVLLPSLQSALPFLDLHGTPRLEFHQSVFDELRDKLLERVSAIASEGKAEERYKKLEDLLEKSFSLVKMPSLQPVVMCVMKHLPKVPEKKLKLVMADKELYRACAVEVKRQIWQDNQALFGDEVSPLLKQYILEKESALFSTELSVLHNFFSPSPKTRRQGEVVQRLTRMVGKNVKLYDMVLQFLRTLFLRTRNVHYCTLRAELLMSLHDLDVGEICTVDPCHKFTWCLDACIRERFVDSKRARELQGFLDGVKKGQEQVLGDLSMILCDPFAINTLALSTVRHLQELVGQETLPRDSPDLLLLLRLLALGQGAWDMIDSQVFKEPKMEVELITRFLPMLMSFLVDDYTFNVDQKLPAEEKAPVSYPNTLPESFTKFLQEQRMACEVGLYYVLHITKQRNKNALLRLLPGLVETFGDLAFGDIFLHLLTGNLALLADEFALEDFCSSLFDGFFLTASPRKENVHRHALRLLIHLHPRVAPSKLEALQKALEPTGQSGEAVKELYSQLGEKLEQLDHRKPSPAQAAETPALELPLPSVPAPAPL
UniProt P46934: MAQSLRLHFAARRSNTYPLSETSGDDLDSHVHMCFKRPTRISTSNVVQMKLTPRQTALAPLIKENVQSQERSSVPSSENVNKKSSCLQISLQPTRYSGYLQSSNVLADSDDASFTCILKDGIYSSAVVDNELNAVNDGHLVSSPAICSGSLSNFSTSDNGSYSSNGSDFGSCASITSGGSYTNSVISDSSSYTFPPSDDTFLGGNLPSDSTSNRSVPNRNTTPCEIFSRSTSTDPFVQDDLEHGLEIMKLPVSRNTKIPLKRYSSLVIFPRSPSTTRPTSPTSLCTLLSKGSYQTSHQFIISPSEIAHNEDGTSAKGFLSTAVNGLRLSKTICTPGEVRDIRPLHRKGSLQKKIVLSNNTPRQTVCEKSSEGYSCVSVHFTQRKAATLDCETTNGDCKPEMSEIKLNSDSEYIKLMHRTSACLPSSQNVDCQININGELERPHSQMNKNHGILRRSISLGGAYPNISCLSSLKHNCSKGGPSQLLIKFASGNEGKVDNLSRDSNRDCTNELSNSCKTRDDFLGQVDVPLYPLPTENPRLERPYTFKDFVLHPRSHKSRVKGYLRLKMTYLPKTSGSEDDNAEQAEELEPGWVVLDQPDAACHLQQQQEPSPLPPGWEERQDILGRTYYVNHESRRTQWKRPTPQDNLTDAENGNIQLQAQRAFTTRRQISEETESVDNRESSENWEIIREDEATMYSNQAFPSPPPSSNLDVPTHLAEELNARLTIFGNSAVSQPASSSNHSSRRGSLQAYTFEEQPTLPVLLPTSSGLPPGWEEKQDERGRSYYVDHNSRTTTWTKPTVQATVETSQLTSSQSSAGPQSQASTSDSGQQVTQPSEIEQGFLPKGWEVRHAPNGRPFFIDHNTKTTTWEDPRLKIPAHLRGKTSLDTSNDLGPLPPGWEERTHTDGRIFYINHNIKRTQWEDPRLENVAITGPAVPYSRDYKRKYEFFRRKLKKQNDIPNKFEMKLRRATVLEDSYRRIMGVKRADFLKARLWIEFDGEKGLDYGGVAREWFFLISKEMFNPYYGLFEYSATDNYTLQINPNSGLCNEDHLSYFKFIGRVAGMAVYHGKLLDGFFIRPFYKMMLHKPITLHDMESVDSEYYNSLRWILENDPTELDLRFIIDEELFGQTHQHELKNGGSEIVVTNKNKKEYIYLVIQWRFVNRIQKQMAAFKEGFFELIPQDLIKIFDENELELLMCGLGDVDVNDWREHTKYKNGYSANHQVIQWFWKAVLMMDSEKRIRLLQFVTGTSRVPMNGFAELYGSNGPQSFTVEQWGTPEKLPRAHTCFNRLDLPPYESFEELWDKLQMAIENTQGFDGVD
UniProt Q9BZQ8: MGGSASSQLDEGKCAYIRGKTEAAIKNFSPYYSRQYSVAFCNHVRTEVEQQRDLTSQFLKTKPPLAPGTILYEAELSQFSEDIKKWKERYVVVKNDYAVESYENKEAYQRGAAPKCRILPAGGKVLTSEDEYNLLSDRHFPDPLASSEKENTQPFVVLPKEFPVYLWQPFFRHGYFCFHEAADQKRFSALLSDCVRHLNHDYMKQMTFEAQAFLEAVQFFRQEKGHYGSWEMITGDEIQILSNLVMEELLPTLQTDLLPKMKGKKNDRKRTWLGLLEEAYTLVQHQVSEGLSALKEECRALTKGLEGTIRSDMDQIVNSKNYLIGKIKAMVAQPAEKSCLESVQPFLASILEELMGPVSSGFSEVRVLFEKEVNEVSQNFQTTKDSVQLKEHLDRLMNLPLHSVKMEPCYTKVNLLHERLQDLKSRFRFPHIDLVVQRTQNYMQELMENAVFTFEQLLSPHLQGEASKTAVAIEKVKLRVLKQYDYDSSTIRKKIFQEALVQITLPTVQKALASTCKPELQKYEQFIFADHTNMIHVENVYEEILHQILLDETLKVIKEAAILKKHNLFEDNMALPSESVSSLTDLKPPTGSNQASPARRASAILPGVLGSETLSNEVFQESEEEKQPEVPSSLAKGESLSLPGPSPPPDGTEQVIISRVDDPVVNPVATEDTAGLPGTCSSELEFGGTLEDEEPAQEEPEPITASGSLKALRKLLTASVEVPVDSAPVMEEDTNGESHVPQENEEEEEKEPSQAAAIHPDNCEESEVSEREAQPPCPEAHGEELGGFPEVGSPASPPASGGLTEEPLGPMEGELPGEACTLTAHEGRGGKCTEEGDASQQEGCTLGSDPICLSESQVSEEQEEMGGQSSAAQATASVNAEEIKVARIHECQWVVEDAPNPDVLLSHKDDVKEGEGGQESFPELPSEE
UniProt O00221: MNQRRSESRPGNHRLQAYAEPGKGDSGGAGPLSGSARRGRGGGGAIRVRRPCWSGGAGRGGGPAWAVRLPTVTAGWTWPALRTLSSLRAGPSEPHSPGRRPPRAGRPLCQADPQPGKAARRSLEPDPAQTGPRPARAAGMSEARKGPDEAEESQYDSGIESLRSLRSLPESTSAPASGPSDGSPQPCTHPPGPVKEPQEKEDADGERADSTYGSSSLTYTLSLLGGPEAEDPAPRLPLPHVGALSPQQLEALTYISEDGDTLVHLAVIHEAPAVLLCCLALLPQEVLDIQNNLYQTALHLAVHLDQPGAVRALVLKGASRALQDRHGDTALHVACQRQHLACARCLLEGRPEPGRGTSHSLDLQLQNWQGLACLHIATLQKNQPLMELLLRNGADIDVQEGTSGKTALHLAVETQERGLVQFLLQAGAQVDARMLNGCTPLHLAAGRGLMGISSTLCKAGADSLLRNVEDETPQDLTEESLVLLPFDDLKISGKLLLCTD

How the values were obtained:
Test in all cases: log2 fold change, soluble protein after heating vs DMSO (PISA); higher = thermal stabilisation; K562 lysate, 10 uM; active = over 0.2 and 3.5 SD of the protein, either way, in both replicates (recomputed)
ibrutinib = compound: C=CC(=O)N1CCC[C@@H](n2nc(-c3ccc(Oc4ccccc4)cc3)c3c(N)ncnc32)C1 [ibrutinib]
Procedure, shortened: (§1)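 K562 pellets were dounce-homogenised in PBS pH 7.4 with 1 mM MgCl2, and the crude extract at 1 mg/mL protein was treated with 10 μM compound for 30 min. Aliquots were heated for 3 min across 48°C-58°C, pooled, and brought to 0.5% NP-40 at 4°C; soluble protein was the supernatant after 21,000xg for 90 min. Soluble protein was quantified by TMTpro 16plex LC-MS/MS with channel sums equalised, and reported as log2 fold change in thermal stability against DMSO controls, with values from duplicates.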

[1] = compound: CC(=O)c1cnc2ccc(-c3cc(Cl)c(O)c(Cl)c3)nc2c1N[C@H]1CC[C@H](CN(C)C)CC1
Procedure, shortened: as §1

ralimetinib = compound: CC(C)(C)Cn1c(N)nc2ccc(-c3[nH]c(C(C)(C)C)nc3-c3ccc(F)cc3)nc21 [ralimetinib]
Procedure, shortened: as §1

[2] = compound: CC(C)(O)CC(=O)NCCn1ccc2ncnc(Nc3ccc(Oc4cccc(C(F)(F)F)c4)c(Cl)c3)c21
Procedure, shortened: as §1

[3] = compound: CC(C)C1=C2N=C(C=C(N2N=C1)NCC3=CC=CC=C3)NCCCCCCN
Procedure, shortened: as §1

[4] = compound: CC1=C(C(CC(=O)N1)C2=CC=C(C=C2)C(F)(F)F)C(=O)NC3=C(C=C4C(=C3)C=NN4)F
Procedure, shortened: as §1

[5] = compound: CC1=C(C2=C(C=C1)C(=O)C3=CC=CC=C3N2CCCN)C
Procedure, shortened: as §1

[6] = compound: CC1=C(C=C(C=C1)NC(=O)C2=CC(=CC=C2)C(C)(C)C#N)NC3=CC4=C(C=C3)N=CN(C4=O)C
Procedure, shortened: as §1

[7] = compound: CC1=C(C=C(C=C1)NC(=O)C2=CC(=CC=C2)N(C)C)NC(=O)C3=CC=C(C=C3)O
Procedure, shortened: as §1

[8] = compound: CC1=CC=C(C=C1)SC2=C3C=C(SC3=CN=C2)C(=O)N
Procedure, shortened: as §1

vemurafenib = compound: CCCS(=O)(=O)Nc1ccc(F)c(C(=O)c2c[nH]c3ncc(-c4ccc(Cl)cc4)cc23)c1F [vemurafenib]
Procedure, shortened: as §1

[9] = compound: CCCS(=O)(=O)Nc1ccc(F)c(C(=O)c2c[nH]c3ncc(Cl)cc23)c1F
Procedure, shortened: as §1

barasertib = compound: CCN(CCCOc1ccc2c(Nc3cc(CC(=O)Nc4cccc(F)c4)[nH]n3)ncnc2c1)CCOP(=O)(O)O [barasertib]
Procedure, shortened: as §1

[10] = compound: CC[C@@H]1C(=O)N(C)c2cnc(Nc3ccc(C(=O)NC4CCN(C)CC4)cc3OC)nc2N1C1CCCC1
Procedure, shortened: as §1

volasertib = compound: CC[C@@H]1C(=O)N(C)c2cnc(Nc3ccc(C(=O)N[C@H]4CC[C@H](N5CCN(CC6CC6)CC5)CC4)cc3OC)nc2N1C(C)C [volasertib]
Procedure, shortened: as §1

[11] = compound: CCn1c(C(=O)N(C2CC2)C2CC2)cc2c3c(ncn3C)c(Nc3cc(C)n(C)n3)nc21
Procedure, shortened: as §1

[12] = compound: CCn1cc(-c2ccnc3[nH]c(-c4cccc(CN(C)C)c4)cc23)c(-c2ccc(NC(=O)N(C)C)cc2)n1
Procedure, shortened: as §1

[13] = compound: CN1CCC(CNc2ccc3ncc(-c4cccc(OC(F)(F)F)c4)n3n2)CC1
Procedure, shortened: as §1

saracatinib = compound: CN1CCN(CCOc2cc(OC3CCOCC3)c3c(Nc4c(Cl)ccc5c4OCO5)ncnc3c2)CC1 [saracatinib]
Procedure, shortened: as §1

sotrastaurin = compound: CN1CCN(c2nc(C3=C(c4c[nH]c5ccccc45)C(=O)NC3=O)c3ccccc3n2)CC1 [sotrastaurin]
Procedure, shortened: as §1

Measured: log2 fold change

NDUFA8 (UniProt P51970)
inactive: ibrutinib -0.017 | [1] 0.011 | ralimetinib -0.048 | [2] 0.002 | [3] 0.018 | [4] 0.018 | [5] 0.044 | [6] -0.012 | [7] -0.031 | [8] -0.004 | vemurafenib 0.035 | [9] -0.022 | barasertib -0.055 | [10] -0.011 | volasertib 0.012 | [11] 0.047 | [12] 0.175 | [13] -0.083 | saracatinib -0.024 | sotrastaurin 0.009

NDUFS7 (UniProt O75251)
inactive: ibrutinib -0.016 | [1] 0.018 | ralimetinib 0.035 | [2] -0.056 | [3] 0 | [4] 0.039 | [5] 0.038 | [6] 0.014 | [7] -0.014 | [8] 0.056 | vemurafenib -0.035 | [9] -0.005 | barasertib 0.054 | [10] -0.039 | volasertib 0.009 | [11] 0.061 | [12] -0.043 | [13] -0.069 | saracatinib -0.017 | sotrastaurin 0.043

NDUFA2 (UniProt O43678)
inactive: ibrutinib 0.06 | [1] 0.019 | ralimetinib 0.024 | [2] -0.011 | [3] -0.04 | [4] -0.016 | [5] 0.035 | [6] 0.002 | [7] 0.005 | [8] -0.003 | vemurafenib 0.059 | [9] -0.024 | barasertib 0.094 | [10] 0.048 | volasertib 0.017 | [11] -0.003 | [12] -0.052 | [13] -0.013 | saracatinib 0.052 | sotrastaurin -0.046

NLE1 (UniProt Q9NVX2)
inactive: ibrutinib 0.018 | [1] -0.006 | ralimetinib 0.01 | [2] -0.01 | [3] -0.022 | [4] -0.011 | [5] -0.009 | [6] 0.003 | [7] 0.003 | [8] -0.007 | vemurafenib 0 | [9] 0.002 | barasertib -0.027 | [10] -0.035 | volasertib 0.023 | [11] 0 | [12] -0.026 | [13] 0.023 | saracatinib -0.017 | sotrastaurin 0.011

NFS1 (UniProt Q9Y697)
inactive: ibrutinib 0.011 | [1] -0.004 | ralimetinib 0.013 | [2] -0.041 | [3] -0.002 | [4] -0.016 | [5] -0.026 | [6] 0.017 | [7] -0.025 | [8] 0.007 | vemurafenib 0.027 | [9] 0.014 | barasertib -0.008 | [10] 0.038 | volasertib -0.027 | [11] -0.009 | [12] -0.002 | [13] 0.027 | saracatinib -0.047 | sotrastaurin -0.001

NFYC (UniProt Q13952)
inactive: ibrutinib -0.02 | [1] 0 | ralimetinib 0.027 | [2] -0.029 | [3] 0 | [4] 0.02 | [5] 0.016 | [6] -0.005 | [7] 0.021 | [8] -0.019 | vemurafenib -0.019 | [9] -0.035 | barasertib 0.035 | [10] 0.013 | volasertib 0.009 | [11] 0.004 | [12] -0.037 | [13] 0.06 | saracatinib -0.022 | sotrastaurin 0.034

NFXL1 (UniProt Q6ZNB6)
inactive: ibrutinib -0.021 | [1] -0.019 | ralimetinib 0.008 | [2] -0.007 | [3] 0.039 | [4] 0.029 | [5] 0.018 | [6] 0.026 | [7] 0.026 | [8] 0.031 | vemurafenib 0.015 | [9] -0.007 | barasertib -0.108 | [10] 0.064 | volasertib -0.076 | [11] -0.029 | [12] -0.008 | [13] 0.132 | saracatinib -0.04 | sotrastaurin -0.145

NDUFB4 (UniProt O95168)
inactive: ibrutinib 0.154 | [1] -0.005 | ralimetinib -0.035 | [2] -0.032 | [3] 0.007 | [4] 0.028 | [5] 0.015 | [6] 0 | [7] 0.023 | [8] 0.036 | vemurafenib -0.045 | [9] 0.022 | barasertib -0.18 | [10] 0.073 | volasertib -0.026 | [11] -0.006 | [12] 0.218 | [13] -0.228 | saracatinib 0.028 | sotrastaurin 0.003

NEDD8 (UniProt Q15843)
inactive: ibrutinib 0.059 | [1] -0.013 | ralimetinib -0.001 | [2] 0 | [3] 0.011 | [4] -0.01 | [5] 0.005 | [6] 0.077 | [7] 0.025 | [8] -0.029 | vemurafenib 0.063 | [9] 0.019 | barasertib 0.113 | [10] -0.003 | volasertib 0.045 | [11] 0.041 | [12] 0.025 | [13] -0.107 | saracatinib 0.02 | sotrastaurin 0

NDUFAF2 (UniProt Q8N183)
inactive: ibrutinib -0.006 | [1] -0.004 | ralimetinib -0.021 | [2] 0.035 | [3] 0.051 | [4] 0.036 | [5] -0.01 | [6] 0.033 | [7] 0.001 | [8] -0.021 | vemurafenib -0.023 | [9] -0.042 | barasertib 0.009 | [10] 0.056 | volasertib 0.022 | [11] 0.022 | [12] -0.174 | [13] 0.014 | saracatinib 0.025 | sotrastaurin -0.008

NFU1 (UniProt Q9UMS0)
inactive: ibrutinib 0.143 | [1] 0.003 | ralimetinib -0.085 | [2] -0.033 | [3] 0.007 | [4] -0.021 | [5] 0.014 | [6] -0.004 | [7] -0.065 | [8] 0.016 | vemurafenib 0.003 | [9] -0.018 | barasertib 0.246 | [10] 0.071 | volasertib 0.03 | [11] -0.014 | [12] 0.024 | [13] -0.125 | saracatinib 0.016 | sotrastaurin -0.041

NDUFA12 (UniProt Q9UI09)
inactive: ibrutinib -0.04 | [1] -0.042 | ralimetinib -0.017 | [2] -0.048 | [3] -0.003 | [4] 0.036 | [5] 0.038 | [6] -0.047 | [7] -0.013 | [8] -0.01 | vemurafenib 0.049 | [9] 0.008 | barasertib 0.046 | [10] 0.02 | volasertib 0.051 | [11] 0.026 | [12] 0.063 | [13] -0.129 | saracatinib -0.017 | sotrastaurin 0.088

NELFB isoform 2 (UniProt Q8WX92)
inactive: ibrutinib 0.039 | [1] 0.021 | ralimetinib 0.056 | [2] -0.011 | [3] 0.004 | [4] 0.032 | [5] -0.016 | [6] 0.007 | [7] 0.008 | [8] 0.014 | vemurafenib 0.01 | [9] -0.007 | barasertib -0.007 | [10] 0.021 | volasertib -0.018 | [11] 0.026 | [12] -0.01 | [13] -0.046 | saracatinib 0.025 | sotrastaurin -0.017

NEDD4 isoform 4 (UniProt P46934)
inactive: ibrutinib -0.008 | [1] 0.015 | ralimetinib 0.001 | [2] -0.019 | [3] -0.045 | [4] -0.002 | [5] 0.011 | [6] -0.014 | [7] -0.012 | [8] 0 | vemurafenib 0.042 | [9] 0.017 | barasertib 0.027 | [10] -0.02 | volasertib -0.019 | [11] 0.001 | [12] -0.059 | [13] 0.009 | saracatinib -0.006 | sotrastaurin -0.009

NIBAN1 (UniProt Q9BZQ8)
inactive: ibrutinib 0.009 | [1] -0.024 | ralimetinib 0.011 | [2] -0.006 | [3] 0.01 | [4] 0.022 | [5] -0.002 | [6] -0.014 | [7] 0.055 | [8] -0.003 | vemurafenib -0.008 | [9] 0.014 | barasertib 0.023 | [10] -0.046 | volasertib -0.054 | [11] -0.004 | [12] 0.009 | [13] -0.035 | saracatinib -0.02 | sotrastaurin 0.005

NFKBIE (UniProt O00221)
inactive: ibrutinib -0.018 | [1] 0.054 | ralimetinib -0.008 | [2] -0.059 | [3] -0.05 | [4] 0.015 | [5] -0.044 | [6] 0.027 | [7] 0.05 | [8] 0.018 | vemurafenib 0.046 | [9] 0.051 | barasertib 0.174 | [10] 0.081 | volasertib -0.106 | [11] -0.024 | [12] -0.07 | [13] -0.045 | saracatinib -0.123 | sotrastaurin -0.025
